These are yes or no findings as the source states them, for the method shown. Some entries that bind do so weakly or less than the wild type.

Amino acid sequences for entries named in this document (tags omitted). Residues count along the entry.
UniProt P07766, residues 23-207: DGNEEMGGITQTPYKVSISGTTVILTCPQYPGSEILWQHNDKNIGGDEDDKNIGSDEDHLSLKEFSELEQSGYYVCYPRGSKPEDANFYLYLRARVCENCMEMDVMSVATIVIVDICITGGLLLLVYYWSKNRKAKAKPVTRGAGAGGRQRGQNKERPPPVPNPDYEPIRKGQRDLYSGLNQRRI

This test concerns the target human CD3 protein as natively presented on the surface of T cells (human) (UniProt P07766). The test can be described thus: flow cytometry on CD3+ T cells from human PBMCs, gMFI (AF647).

B1: SEQ ID NO:4 x 40G5 (bispecific antibody, V domains shown)
VHH: EVQLQESGGGLVQAGHSLRLSCVGSGSRFDNYAMGWFRQAPGKEREFVAAISWSSGTTRYLDTVKGRFTISRDNAKSTVYLQMNSLKPEDTAVYYCAARYQPRYYDSGDMDGYEYDNWGQGTQVTVSS
VH: EVQLVQSGAEVKKPGASVKVSCKASGYTFTNYYIHWVRQAPGQGLEWIGWIYPGDGNTKYNEKFKGRATLTADTSTSTAYLELSSLRSEDTAVYYCARDSYSNYYFDYWGQGTLVTVSS
VL: DIVMTQSPDSLAVSLGERATINCKSSQSLLNSRTRKNYLAWYQQKPGQPPKLLIYWASTRESGVPDRFSGSGSGTDFTLTISSLQAEDVAVYYCTQSFILRTFGQGTKVEIK
Take B1: the binding entry is recorded as “binds”.

B2: SEQ ID NO: 4×SP34 v8 (bispecific antibody, V domains shown)
VHH: EVQLQESGGGLVQAGHSLRLSCVGSGSRFDNYAMGWFRQAPGKEREFVAAISWSSGTTRYLDTVKGRFTISRDNAKSTVYLQMNSLKPEDTAVYYCAARYQPRYYDSGDMDGYEYDNWGQGTQVTVSS
VH: EVQLVESGGGLVQPGGSLKLSCAASGFTFNTYAMNWVRQAPGKGLEWVARIRSKYNNYATYYADSVKDRFTISRDDSKNTAYLQMNNLKTEDTAVYYCVRHGNFGNSYVAWFAYWGQGTLVTVSS
VL: QTVVTQEPSLTVSPGGTVTLTCRSSTGAVTTSNYANWVQQKPGQAPRGLIGGTNKRAPGTPARFSGSLLGGKAALTLSGVQPEDEAEYYCALWYSNLWVFGGGTKLTVL
notes: CD38 VHO arm paired with a CD3 arm
Regarding B2, the binding entry is given as “binds”.

These data come from patent publication US20250277051A1 (HANGZHOU UNOGEN BIOTECH, published 2025).
